Experimental data: PubChem BioAssay AID652243 (Drosophila RNAi Screening Center, 2013)
The screen tested about 24,000 reagents; this is an unselected part of those with a known target gene and a result. Of all reagents, 246 (1%) are marked active. 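Plates not normalised; calls are printed but the firefly/Renilla ratio behind them is not deposited; fold cut for lowering reported inconsistently.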 Raw values vary from plate to plate and are shown uncorrected. A plus sign joins genes that one reagent is predicted to hit. Not given: the amount of reagent.

Aim: 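Fly regulators of androgen-dependent reporter output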 (primary screen)
Cells: Drosophila S2R+ cells
Knock-down reagent: long dsRNA against Drosophila genes
Timing: 72 h (48 h, then 24 h hormone)
Conditions: synthetic androgen R1881 at 10 nM for 24 h
Measured: 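Firefly light from an androgen-responsive reporter and Renilla control light per well, raw and unnormalised, for each of two replicates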
Scale: firefly reporter light: higher = more light from androgen-responsive reporter; Renilla control light: higher = more constitutive control signal (cell number, transfection)
Active means: 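Hit when the log firefly-to-Renilla ratio dropped or increased by a fixed fold versus the mean of GFP or LacZ controls across duplicate plates; lowering cut given as 1.5 and as 3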
Meaning of the calls: active = hit: reporter lowered or raised; inactive = no hit

gene	DRSC id	firefly reporter light, replicate 1	firefly reporter light, replicate 2	Renilla control light, replicate 1	Renilla control light, replicate 2	Outcome
CG7271 (GeneID 40021)	DRSC22561	1.08e6	9.86e5	1.35e6	1.37e6	inactive
vex (GeneID 32033)	DRSC19481	3.90e5	4.33e5	3.20e6	3.01e6	inactive
vex (GeneID 32033)	DRSC19651	5.47e5	4.96e5	3.14e6	2.84e6	inactive
vex (GeneID 32033)	DRSC21843	5.39e5	5.18e5	1.01e6	1.07e6	inactive
vex (GeneID 32033)	DRSC25475	8.58e5	7.31e5	1.33e6	1.19e6	inactive
CG3408 (GeneID 39107)	DRSC10360	1.81e5	1.51e5	1.64e6	1.04e6	inactive
Mys45A (GeneID 35925)	DRSC07067	1.38e6	1.47e6	1.20e6	1.24e6	inactive
Mys45A (GeneID 35925)	DRSC25852	4.05e5	3.26e5	1.02e6	8.57e5	inactive
fusl (GeneID 33765)	DRSC02351	2.99e5	4.96e5	7.49e5	7.52e5	inactive
fusl (GeneID 33765)	DRSC28283	4.18e5	5.11e5	1.05e6	1.43e6	inactive
CG31301 (GeneID 41865)	DRSC22164	5.81e5	4.66e5	1.26e6	1.13e6	inactive
qin (GeneID 42236)	DRSC14782	2.10e5	2.48e5	1.66e6	1.84e6	inactive
qin (GeneID 42236)	DRSC14785	1.46e5	1.92e5	1.62e6	2.06e6	inactive
CG7099 (GeneID 34753)	DRSC03006	9.98e5	1.16e6	1.78e6	1.91e6	inactive
CG7099 (GeneID 34753)	DRSC27321	3.25e5	2.64e5	5.37e5	6.66e5	inactive
CG15358 (GeneID 33366)	DRSC00388	1.30e5	1.14e5	9.49e5	1.07e6	inactive
rig (GeneID 37335)	DRSC06053	1.03e6	8.48e5	1.34e6	9.08e5	inactive
rig (GeneID 37335)	DRSC06400	39560	84465	7.69e5	8.78e5	inactive
Wdr37 (GeneID 42218)	DRSC14500	72600	57242	6.33e5	5.90e5	inactive
His4r (GeneID 41773)	DRSC16703	4.49e5	6.80e5	1.25e5	1.52e5	inactive
His4r (GeneID 41773)	DRSC27569	5.61e5	3.49e5	4.76e5	6.06e5	inactive
Ugt36E1 (GeneID 35139)	DRSC02599	1.48e6	7.18e5	2.05e6	1.14e6	inactive
mRpL39 (GeneID 39627)	DRSC10255	1.92e5	1.87e5	1.68e6	1.44e6	inactive
PGRP-SC2 (GeneID 35862)	DRSC06481	3.40e5	2.79e5	2.20e6	1.77e6	inactive
PGRP-SC2 (GeneID 35862)	DRSC25449	3.46e5	4.77e5	6.84e5	6.86e5	inactive
CG3581 (GeneID 42315)	DRSC15499	2.16e5	2.27e5	2.67e6	3.32e6	inactive
Spn100A (GeneID 43642)	DRSC14596	1.20e5	78121	9.63e5	6.82e5	inactive
twe (GeneID 34954)	DRSC03628	8.26e5	1.20e6	1.56e6	1.87e6	inactive
twe (GeneID 34954)	DRSC27109	4.38e5	4.02e5	7.43e5	6.29e5	inactive
twe (GeneID 34954)	DRSC36999					inactive
CG5172 (GeneID 32711)	DRSC19936	4.47e5	4.00e5	3.18e6	3.10e6	inactive
CG5172 (GeneID 32711)	DRSC23493	1.19e6	1.14e6	8.24e5	1.18e6	inactive
mRpS29 (GeneID 37563)	DRSC04398	6.29e5	5.87e5	1.07e6	1.03e6	inactive
mRpS29 (GeneID 37563)	DRSC27790	5.20e5	3.73e5	7.30e5	7.19e5	inactive
CG13367 (GeneID 31013)	DRSC18485	4.84e5	4.36e5	4.44e6	4.02e6	inactive
CG13367 (GeneID 31013)	DRSC18486	2.80e5	3.89e5	3.40e6	3.59e6	inactive
CG43342 (GeneID 12798510)	DRSC13561	2.07e5	1.50e5	1.81e5	2.76e5	inactive
CG31869 (GeneID 34490)	DRSC02582	2.68e5	2.13e5	2.53e6	1.93e6	inactive
CG31869 (GeneID 34490)	DRSC02674	1.67e5	1.67e5	1.76e6	1.86e6	inactive
Pif1A (GeneID 8674049)	DRSC14383	80741	96187	1.31e6	1.25e6	inactive
alpha-Est8 (GeneID 40899)	DRSC12620	59939	59820	1.98e6	1.08e6	inactive
CG11089 + CG31381	DRSC13690	1.14e5	1.12e5	3.03e5	2.66e5	inactive
CG11089 + CG31381	DRSC14290	54825	98665	5.43e5	4.48e5	inactive
CG11089 + CG31381	DRSC29949	5.89e5	4.88e5	1.40e6	1.47e6	inactive
GlcAT-I (GeneID 251900)	DRSC17307	5.18e5	5.85e5	1.18e6	9.77e5	inactive
Atg101 (GeneID 32871)	DRSC20020	2.82e5	1.14e5	1.00e6	4.62e5	inactive

Continued; the last 6 above are carried over.
gene	DRSC id	firefly reporter light, replicate 1	firefly reporter light, replicate 2	Renilla control light, replicate 1	Renilla control light, replicate 2	Outcome
alpha-Est8 (GeneID 40899)	DRSC12620	59939	59820	1.98e6	1.08e6	inactive
CG11089 + CG31381	DRSC13690	1.14e5	1.12e5	3.03e5	2.66e5	inactive
CG11089 + CG31381	DRSC14290	54825	98665	5.43e5	4.48e5	inactive
CG11089 + CG31381	DRSC29949	5.89e5	4.88e5	1.40e6	1.47e6	inactive
GlcAT-I (GeneID 251900)	DRSC17307	5.18e5	5.85e5	1.18e6	9.77e5	inactive
Atg101 (GeneID 32871)	DRSC20020	2.82e5	1.14e5	1.00e6	4.62e5	inactive
hui (GeneID 36648)	DRSC05977	2.79e5	3.84e5	1.49e6	1.38e6	inactive
hui (GeneID 36648)	DRSC28947	1.35e6	1.20e6	2.38e6	1.37e6	inactive
CG2246 (GeneID 43637)	DRSC15433	1.38e5	1.12e5	1.15e6	7.76e5	inactive
CG2246 (GeneID 43637)	DRSC39271					inactive
CG2246 (GeneID 43637)	DRSC39286					inactive
Kap3 (GeneID 32071)	DRSC19426	1.44e5	1.16e5	1.28e6	1.12e6	inactive
Kap3 (GeneID 32071)	DRSC25680	5.58e5	4.05e5	5.07e5	5.12e5	inactive
CG32713 (GeneID 318166)	DRSC22766	3.69e5	7.67e5	1.09e6	1.37e6	inactive
CG14205 (GeneID 32952)	DRSC19560	3.11e5	1.48e5	1.14e6	7.04e5	inactive
CG14205 (GeneID 32952)	DRSC28253	3.64e5	5.45e5	1.46e6	2.18e6	inactive
CG14205 (GeneID 32952)	DRSC39005	9.55e5	1.05e6	1.91e6	1.91e6	inactive
Tdrd3 (GeneID 39612)	DRSC10016	1.32e5	1.63e5	1.39e6	1.16e6	inactive
Sgs7 (GeneID 47198)	DRSC11281	3.90e5	3.09e5	3.06e6	1.96e6	inactive
Nrd1 (GeneID 32143)	DRSC19830	81655	80356	6.63e5	8.06e5	inactive
Ir76a + CG14102	DRSC38737	8.90e5	7.01e5	2.26e6	2.30e6	inactive
Caper (GeneID 33989)	DRSC02137	8.18e5	7.55e5	1.18e6	1.70e6	inactive
CG12926 (GeneID 35996)	DRSC06239	5.57e5	5.46e5	2.48e6	2.15e6	inactive
CG12926 (GeneID 35996)	DRSC21930	1.02e6	9.80e5	1.41e6	1.44e6	inactive
CG7924 (GeneID 39574)	DRSC10931	8.63e5	1.29e6	8.66e5	2.03e6	inactive
CG7924 (GeneID 39574)	DRSC25661	6.15e5	9.05e5	8.68e5	7.66e5	inactive
CG3880 (GeneID 37957)	DRSC04428	3.45e5	3.89e5	2.20e6	2.75e6	inactive
CG3880 (GeneID 37957)	DRSC21404	6.35e5	7.84e5	2.05e6	2.17e6	inactive
CG3880 (GeneID 37957)	DRSC27449	1.87e5	2.64e5	4.10e5	6.66e5	inactive
CG9932 (GeneID 34701)	DRSC03275	2.40e5	1.85e5	1.34e6	9.61e5	inactive
SmydA-7 (GeneID 36916)	DRSC07340	1.17e6	1.09e6	2.31e6	1.72e6	inactive
eIF3d2 (GeneID 41475)	DRSC15651	72217	66704	3.96e5	5.14e5	inactive
Sodq (GeneID 43133)	DRSC15924	1.91e5	2.35e5	2.67e6	2.42e6	inactive
Sodq (GeneID 43133)	DRSC27755	3.18e5	2.00e5	3.91e5	4.18e5	inactive
